Data source: PubChem BioAssay AID1159546 (Gurdon Institute, 2015)
Purpose: 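Ubiquitin E2 enzymes that alter CHK1 phosphorylation after topoisomerase I poisoning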. System: human U2OS osteosarcoma cells. Reagent: siRNA against human genes, about 60 nM siRNA. Challenge: camptothecin 1 uM for 1 hour before harvest. Measurement: 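Western blot signals for pCHK1/CHK1, pKAP1/KAP1 and gammaH2AX, minus the undamaged baseline, expressed as percent of luciferase control siRNA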. Reading the numbers: pCHK1/CHK1 vs control: higher = more CHK1 phosphorylation after camptothecin. Hit rule: In these data the active calls have pCHK1/CHK1 vs control at about 59.8 or lower.
Over the whole deposit, 23 (55%) are marked active. 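a 40% shift in either direction was cited, but only reduced pCHK1/CHK1 counts as active; high values remain inactive.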 Further read-outs or replicates are left out here. Not given: the time to read-out.

UBE2O (ubiquitin conjugating enzyme E2 O) [SID252256129]: pCHK1/CHK1 vs control (%) = 22.3; activity call = active
UBE2D2 (ubiquitin conjugating enzyme E2 D2) [SID252256109]: pCHK1/CHK1 vs control (%) = 12.4; activity call = active
UBE2N (ubiquitin conjugating enzyme E2 N) [SID252256126]: pCHK1/CHK1 vs control (%) = 0; activity call = active
UBE2N (ubiquitin conjugating enzyme E2 N) [SID252256127]: pCHK1/CHK1 vs control (%) = 90.2; activity call = inactive
UBE2J2 (ubiquitin conjugating enzyme E2 J2) [SID252256121]: pCHK1/CHK1 vs control (%) = 77.1; activity call = inactive
UBE2R2 (ubiquitin conjugating enzyme E2 R2) [SID252256133]: pCHK1/CHK1 vs control (%) = 70.3; activity call = inactive
UBE2W (ubiquitin conjugating enzyme E2 W) [SID252256141]: pCHK1/CHK1 vs control (%) = 45.7; activity call = active
UEVLD (UEV and lactate/malate dehyrogenase domains) [SID252256138]: pCHK1/CHK1 vs control (%) = 130; activity call = inactive
UBE2V1 (ubiquitin conjugating enzyme E2 V1) [SID252256139]: pCHK1/CHK1 vs control (%) = 54.8; activity call = active
UBE2T (ubiquitin conjugating enzyme E2 T) [SID252256135]: pCHK1/CHK1 vs control (%) = 46.9; activity call = active
BRCA1 (BRCA1 DNA repair associated) [SID252256097]: pCHK1/CHK1 vs control (%) = 46.9; activity call = active
CDC34 (cell division cycle 34, ubiquitin conjugating enzyme) [SID252256132]: pCHK1/CHK1 vs control (%) = 27.8; activity call = active
UBE2Z (ubiquitin conjugating enzyme E2 Z) [SID252256142]: pCHK1/CHK1 vs control (%) = 85.9; activity call = inactive
UBE2B (ubiquitin conjugating enzyme E2 B) [SID252256105]: pCHK1/CHK1 vs control (%) = 81.1; activity call = inactive
TSG101 (tumor susceptibility 101) [SID252256136]: pCHK1/CHK1 vs control (%) = 101; activity call = inactive
UBE2Q2 (ubiquitin conjugating enzyme E2 Q2) [SID252256131]: pCHK1/CHK1 vs control (%) = 36.2; activity call = active
UBE2E2 (ubiquitin conjugating enzyme E2 E2) [SID252256113]: pCHK1/CHK1 vs control (%) = 127; activity call = inactive
AKTIP (AKT interacting protein) [SID252256116]: pCHK1/CHK1 vs control (%) = 91.4; activity call = inactive
UBE2L6 (ubiquitin conjugating enzyme E2 L6) [SID252256124]: pCHK1/CHK1 vs control (%) = 35; activity call = active
UBE2D3 (ubiquitin conjugating enzyme E2 D3) [SID252256110]: pCHK1/CHK1 vs control (%) = 1.79; activity call = active
UBE2J1 (ubiquitin conjugating enzyme E2 J1) [SID252256120]: pCHK1/CHK1 vs control (%) = 43.8; activity call = active
UBE2L3 (ubiquitin conjugating enzyme E2 L3) [SID252256123]: pCHK1/CHK1 vs control (%) = 35.5; activity call = active
UBE2M (ubiquitin conjugating enzyme E2 M) [SID252256125]: pCHK1/CHK1 vs control (%) = 147
UBE2E1 (ubiquitin conjugating enzyme E2 E1) [SID252256112]: pCHK1/CHK1 vs control (%) = 113; activity call = inactive
UBE2H (ubiquitin conjugating enzyme E2 H) [SID252256119]: pCHK1/CHK1 vs control (%) = 52.6; activity call = active
UBE2S (ubiquitin conjugating enzyme E2 S) [SID252256134]: pCHK1/CHK1 vs control (%) = 58.4; activity call = active
UBE2Q1 (ubiquitin conjugating enzyme E2 Q1) [SID252256130]: pCHK1/CHK1 vs control (%) = 58.5; activity call = active
RBBP8 (RB binding protein 8, endonuclease) [SID252256098]: pCHK1/CHK1 vs control (%) = 34.2; activity call = active
UBE2NL (ubiquitin conjugating enzyme E2 N like (gene/pseudogene)) [SID252256128]: pCHK1/CHK1 vs control (%) = 93.6; activity call = inactive
UBE2U (ubiquitin conjugating enzyme E2 U) [SID252256137]: pCHK1/CHK1 vs control (%) = 51.4; activity call = active
UBE2G1 (ubiquitin conjugating enzyme E2 G1) [SID252256117]: pCHK1/CHK1 vs control (%) = 31.9; activity call = active
UBE2C (ubiquitin conjugating enzyme E2 C) [SID252256107]: pCHK1/CHK1 vs control (%) = 59.8; activity call = active
UBE2K (ubiquitin conjugating enzyme E2 K) [SID252256122]: pCHK1/CHK1 vs control (%) = 94; activity call = inactive
UBE2V2 (ubiquitin conjugating enzyme E2 V2) [SID252256140]: pCHK1/CHK1 vs control (%) = 11.6; activity call = active
UBE2D1 (ubiquitin conjugating enzyme E2 D1) [SID252256108]: pCHK1/CHK1 vs control (%) = 40.8; activity call = active
BIRC6 (baculoviral IAP repeat containing 6) [SID252256106]: pCHK1/CHK1 vs control (%) = 68.5; activity call = inactive
UBE2E3 (ubiquitin conjugating enzyme E2 E3) [SID252256114]: pCHK1/CHK1 vs control (%) = 92.9; activity call = inactive
UBE2G2 (ubiquitin conjugating enzyme E2 G2) [SID252256118]: pCHK1/CHK1 vs control (%) = 70.1; activity call = inactive
UBE2A (ubiquitin conjugating enzyme E2 A) [SID252256104]: pCHK1/CHK1 vs control (%) = 90; activity call = inactive
UBE2F (ubiquitin conjugating enzyme E2 F (putative)) [SID252256115]: pCHK1/CHK1 vs control (%) = 102; activity call = inactive
UBE2D4 (ubiquitin conjugating enzyme E2 D4) [SID252256111]: pCHK1/CHK1 vs control (%) = 54.2; activity call = active

2 entries from above in another layout:
| target gene | PubChem SID | pCHK1/CHK1 vs control (%) | activity call |
| --- | --- | --- | --- |
| UBE2Q2 (ubiquitin conjugating enzyme E2 Q2) | SID252256131 | 36.2 | active |
| UBE2E2 (ubiquitin conjugating enzyme E2 E2) | SID252256113 | 127 | inactive |
